From article PMC9221018, “Sulfonamide-Derived Dithiocarbamate Gold(I) Complexes Induce the Apoptosis of Colon Cancer Cells by the Activation of Caspase 3 and Redox Imbalance” (Biomedicines, 2022)

The compounds below were run on differentiated Caco-2 cells (assay: MTT cytotoxicity assay in differentiated Caco-2 cells (healthy cell model)). Details: IC50 differentiated Caco-2 divided by IC50 undifferentiated Caco-2, 72 h.
Assay type: cell-based, human
Procedure: The human Caco-2 cell line (TC7 clone) was kindly provided by Dr. Edith Brot-Laroche (Université Pierre et Marie Curie-Paris 6, UMR S 872, Les Cordeliers, France). Human epithelial fibroblast cells (NHDF-Ad, Lonza®®, Porriño, Spain) were kindly provided by Dr. Gracia Mendoza (Aragon Health Research Institute, IIS Aragón, Spain). Caco-2 cells (passages 40–70) and fibroblasts (passages 10–30) were maintained in a humidified atmosphere of 5% CO2 at 37 °C and grown in medium following the method used by Quero et al.. The Caco-2 cells were sub-cultured in 25 cm^2 plastic flasks at a density of 1.2 × 10^4 cells/cm^2, while the fibroblasts were sub-cultured on 75 cm^2 plastic flasks at a density of 1 × 10^4 cells/cm^2. The culture medium was replaced every 2 days.
The gold complexes were diluted in dimethyl sulfoxide (DMSO) as a 10 mM stock solution, and then diluted in cell culture medium at the desired concentrations.
For the cytotoxicity screening assays, Caco-2 cells were seeded in 96-well plates at a density of 4 × 10^3 cells/well. The culture medium was replaced with medium containing the drug panel 24 h post-seeding, and the cells were incubated for 24, 48 and 72 h. […] In differentiated Caco-2 and fibroblasts, culture medium containing metal gold complexes was added 15 days post-seeding, and the cells were incubated for 72 h. The antiproliferative effect was measured using an MTT assay, as previously described by Mármol et al.. The absorbance at 540/620 nm was measured using a SPECTROstar Nano (BMG Labtech, Ortenberg, Germany). In order to determine the selectivity index (SI), the IC50 value of the differentiated Caco-2 cells was divided by IC50 value in undifferentiated Caco-2, obtaining the ratio of the normal/cancerous cells’ toxicity.

| Compound | Selectivity Index |
| --- | --- |
| O=S(=O)(NC(=S)[S][Au][PH](c1ccccc1)(c1ccccc1)c1ccccc1)c1ccccc1 [Complex 1, [Au(S2CNHSO2C6H5)(PPh3)]] | 11.2 |
| C#CCn1ccn(Cc2ccccc2)[c]1=[Au-].O=S(=O)(NC(=S)[S-])c1ccccc1 [Complex 9, [Au(S2CNHSO2C6H5)(IBnPropargyl)]] | 2.28 |
| [Au(S2CNHSO2-p-Me-C6H4)(IMePropargyl)] [Complex 8] | 6.46 |
